# Results from PubChem BioAssay AID624297 (National Center for Advancing Translational Sciences (NCATS), 2012).
# About 6,200 (1.8%) of roughly 340,000 compounds were called active. The inconclusive results got no clear call from the source; some entries with a clear call stand among them for comparison. Calls follow the shape of the dose curve; as a rule, active = well fitted activation curve with a large enough effect; inconclusive = small, poorly fitted or top-dose-only effect; inactive = no such curve, though single readings can be large or run the other way. Potencies of inconclusive entries are doubtful fits and often do not repeat.
# Assay: A quantitative high throughput screen for small molecules that induce DNA re-replication in SW480 colon adenocarcinoma cells. Also: nearly all actives have a fitted effect of over 55% in size. As to re-replication activation: % of control where 0% means no effect.
# Conditions: Hoechst DNA content imaging, 48 h; re-replication activation: at 46.1 µM (top of the series) unless noted
# Outline: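 Treated cells incubate 48 hr (37 C, 5% CO2), are stained 40 min with Hoechst, and nuclear fluorescence is enumerated; a rise in nuclei with high DNA signal marks re-replication.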
# Potency is read from the fitted curve at half-maximal effect.
SMILES,Potency,re-replication activation
COc1cc(C=NNC(=O)Cn2nc(C)cc2C)ccc1OC(=O)C1CC1,"inconclusive: 6.51 µM [activator, single point]",
CCOc1cc(NC(=O)c2cccs2)c(OCC)cc1NC(=O)CCC(=O)NCC1CCCO1 (stereo not drawn),active: 6.51 µM,
CCOc1ccccc1N(CC(=O)NC(C)(C)C)C(=O)CCC(=O)Nc1nccs1,"inconclusive: 32.6 µM [activator, partial curve, poor fit]",
COc1ccc(N(C(=O)CCl)C(C(=O)NCCc2ccccc2)c2cccs2)cc1 (stereo not drawn),active: 3.26 µM,
O=C(NCc1cc(C(F)(F)F)ccc1Cl)c1cccc2c1C(=O)c1ccc(N3CCC(Cc4ccccc4)CC3)cc1S2(=O)=O,,inactive: -2.24%
N/C(=N\OC(=O)/C=C/c1ccc(Br)cc1)c1ccccn1,"inconclusive: 29.1 µM [activator, single point]",
COc1cccc(-c2cc(C(F)(F)F)n3nc(C(=O)N4CCCCC4c4cccnc4)cc3n2)c1 (stereo not drawn),"inconclusive: 20.6 µM [activator, single point]",
COc1ccc(/C=C2\CCc3ccccc3C2=O)cc1Cn1nc(C)cc1C,"inconclusive: 23.1 µM [activator, single point]",
CC1=CC(=O)N(c2ccc(C)cc2)C1c1ccc(Cl)cc1 (stereo not drawn),,inactive: 6.15%
O=C(O)c1cc(-c2ccc(Br)s2)nc2ccccc12,"inconclusive: 29.1 µM [activator, partial curve, poor fit]",
O=C(/C=C/NNC(=O)c1ccccc1)c1ccc(Br)cc1,"inconclusive: 29.1 µM [activator, partial curve, poor fit]",
Cc1cnc(CN2CCc3c([nH]c4ccccc34)C2CC(C)C)[nH]1 (stereo not drawn),active: 6.51 µM,
O=C1NC(=O)C2C1C(c1cccs1)NN2Cc1ccccc1 (stereo not drawn),"inconclusive: 0.0046 µM [activator, partial curve, poor fit]",
Cc1cc(Cl)c(S(=O)(=O)Nc2cc(S(=O)(=O)N3CCOCC3)ccc2F)cc1OCC(N)=O,,inactive: 34.4%
COc1cccc(CNC(=O)CCn2c(=O)c3cccn3c3cccnc32)c1,"inconclusive: 0.13 µM [activator, full curve, poor fit]",
CN(C(=O)CSc1cccc[n+]1[O-])C1CCCCC1,"inconclusive: 20 µM [activator, single point]",
CO/N=C/c1ccc(Oc2ccc([N+](=O)[O-])cc2[N+](=O)[O-])c(OC)c1,"inconclusive: 7.31 µM [activator, full curve, poor fit]",
COc1ccc(C=NNC(=O)c2cc(C)oc2C)cc1O,"inconclusive: 18.4 µM [activator, single point]",

# Some of these compounds in order of heavy-atom count, ascending:
SMILES,Potency,re-replication activation
CC1=CC(=O)N(c2ccc(C)cc2)C1c1ccc(Cl)cc1 (stereo not drawn),,inactive: 6.15%
CCOc1ccccc1N(CC(=O)NC(C)(C)C)C(=O)CCC(=O)Nc1nccs1,"inconclusive: 32.6 µM [activator, partial curve, poor fit]",
COc1cccc(-c2cc(C(F)(F)F)n3nc(C(=O)N4CCCCC4c4cccnc4)cc3n2)c1 (stereo not drawn),"inconclusive: 20.6 µM [activator, single point]",
